Data reported in paper doi:10.1101/2022.04.06.487429.
Construct, isoform or probe ends are uncertain for at least one entry.

Tested on: NagR (ROK family repressor)
Assay: EMSA
Details: 10 mM GlcN-6P does not disrupt complex (25 nM NagR)

GCCGATATTTCATATATGTTAAGGACGTTGACAAAATATCTCCCGAGAC (double strand) [hmoA probe]
binding result: binds
